Results deposited as PubChem BioAssay AID1259405 (NCATS, 2018)
Shown is an unselected part of about 50,000 reagents. About 4,000 of them (8%) count as active. 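Mouse siRNA library applied to hamster cells; one well for each siRNA.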 A number with no mark means an inactive call. The numbers tell different reagents against one gene apart.

- Screen: 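Silenced genes that increase secreted GFP made by CHO cells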 (primary screen)
- Cell system: Chinese hamster CHO-K1 ovary cells with stable secreted eGFP expression
- Reagents: single siRNA against mouse genes, 0.8 pmol siRNA per well (2 µl of 400 nM stock)
- Duration: 3 days
- Measurement: 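Percent of the per-plate non-targeting control median for intracellular GFP per well by laser scanning cytometry and for cell viability by ATP luminescence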
- Scale: GFP, % of control: higher = more GFP per well, higher productivity; viability (ATP), % of control: higher = more viable cells (more ATP)
- Active means: 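Called active when intracellular GFP, relative to negative control, is at or above 120%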

| target | reagent | GFP, % of control | viability (ATP), % of control |
| --- | --- | --- | --- |
| Rptn (GeneID 20129) | 1 | 116 | 98 |
| Rptn (GeneID 20129) | 2 | 85.1 | 37.9 |
| Rptn (GeneID 20129) | 3 | 56.6 | 79.1 |
| Mtfr2 (GeneID 71804) | 1 | 93.6 | 85.4 |
| Mtfr2 (GeneID 71804) | 2 | 50 | 74.9 |
| Mtfr2 (GeneID 71804) | 3 | 44.9 | 71.1 |
| Sgta (GeneID 52551) | 1 | 77.2 | 96.9 |
| Sgta (GeneID 52551) | 2 | 82.8 | 82.6 |
| Mreg (GeneID 381269) | 1 | 66.1 | 63.6 |
| Mreg (GeneID 381269) | 2 | 94.5 | 82.4 |
| Mreg (GeneID 381269) | 3 | 69.4 | 90.9 |
| Bcan (GeneID 12032) | 1 | 83.8 | 60.1 |
| Bcan (GeneID 12032) | 2 | 102 | 74.2 |
| Bcan (GeneID 12032) | 3 | 59.3 | 72.4 |
| Tspear (GeneID 252974) | 1 | 111 | 90.5 |
| Tspear (GeneID 252974) | 2 | 122 (active) | 88.6 |
| Tspear (GeneID 252974) | 3 | 92.4 | 140 |
| Agr3 (GeneID 403205) | 1 | 70.8 | 74.8 |
| Agr3 (GeneID 403205) | 2 | 133 (active) | 57.5 |
| Agr3 (GeneID 403205) | 3 | 97 | 67.9 |
| Hfm1 (GeneID 330149) | 1 | 78.9 | 93.6 |
| Hfm1 (GeneID 330149) | 2 | 85 | 93.5 |
| Hfm1 (GeneID 330149) | 3 | 66.5 | 61.3 |
| Baalc (GeneID 118452) | 1 | 64 | 65.2 |
| Baalc (GeneID 118452) | 2 | 60 | 66.6 |
| Baalc (GeneID 118452) | 3 | 67 | 67.6 |
| Grb10 (GeneID 14783) | 1 | 40.2 | 18.8 |
| Grb10 (GeneID 14783) | 2 | 62 | 61.7 |
| Grb10 (GeneID 14783) | 3 | 96.5 | 108 |
| Cd55 (GeneID 13136) | 1 | 101 | 82.7 |
| Cd55 (GeneID 13136) | 2 | 84.5 | 82.2 |
| Cd55 (GeneID 13136) | 3 | 88.8 | 75.9 |
| Srd5a1 (GeneID 78925) | 1 | 168 (active) | 92.3 |
| Srd5a1 (GeneID 78925) | 2 | 67.9 | 73.9 |
| Srd5a1 (GeneID 78925) | 3 | 73.8 | 86.6 |
| Kremen1 (GeneID 84035) | 1 | 112 | 97.5 |
| Kremen1 (GeneID 84035) | 2 | 65.4 | 50.4 |
| Kremen1 (GeneID 84035) | 3 | 100 | 74 |
| Fcrlb (GeneID 435653) | 1 | 32.4 | 46.7 |
| Fcrlb (GeneID 435653) | 2 | 74.8 | 88.8 |
| Fcrlb (GeneID 435653) | 3 | 38.3 | 63.7 |
| Lig4 (GeneID 319583) | 1 | 68.5 | 80.7 |
| Lig4 (GeneID 319583) | 2 | 67 | 64.6 |
| Lig4 (GeneID 319583) | 3 | 65.9 | 94.5 |
| Cripto (GeneID 21667) | 1 | 19.2 | 40.4 |
| Cripto (GeneID 21667) | 2 | 76.5 | 81.1 |
| Cripto (GeneID 21667) | 3 | 99.9 | 90.7 |
| Acd (GeneID 497652) | 1 | 48.7 | 57.7 |
| Acd (GeneID 497652) | 2 | 82.5 | 74 |
| Acd (GeneID 497652) | 3 | 78.7 | 89.3 |
| Antxr1 (GeneID 69538) | 1 | 108 | 68.3 |
| Antxr1 (GeneID 69538) | 2 | 61.7 | 64.7 |
| Antxr1 (GeneID 69538) | 3 | 179 (active) | 55 |
| Nscme3l (GeneID 75555) | 1 | 74 | 60.5 |
| Nscme3l (GeneID 75555) | 2 | 85.1 | 93.2 |
| Nscme3l (GeneID 75555) | 3 | 99.4 | 65.9 |
| Wars2 (GeneID 70560) | 1 | 74.5 | 75.6 |
| Wars2 (GeneID 70560) | 2 | 115 | 99.2 |
| Or10ak14 (GeneID 258259) | 1 | 64.2 | 76.7 |
| Or10ak14 (GeneID 258259) | 2 | 77.8 | 89.8 |
| Or10ak14 (GeneID 258259) | 3 | 67.7 | 60.6 |
| Ostn (GeneID 239790) | 1 | 74.8 | 89.9 |
| Ostn (GeneID 239790) | 2 | 78 | 94.6 |
| Ostn (GeneID 239790) | 3 | 82.3 | 64.7 |
| Slc2a12 (GeneID 353169) | 1 | 85.3 | 83.8 |
| Slc2a12 (GeneID 353169) | 2 | 99.2 | 83.2 |
| Slc2a12 (GeneID 353169) | 3 | 69.7 | 71.6 |

As entered above.
Under “viability (ATP), % of control”, Mtfr2 (GeneID 71804) #1 reads 85.4
Entry of Tspear (GeneID 252974) #2 in “viability (ATP), % of control”: 88.6 (active)
Under “GFP, % of control”, Wars2 (GeneID 70560) #1 shows 74.5
Slc2a12 (GeneID 353169) #1, GFP, % of control: 85.3
Under “GFP, % of control”, Srd5a1 (GeneID 78925) #1 is entered as 168 (active)
For “viability (ATP), % of control”, Slc2a12 (GeneID 353169) #2 is entered as 83.2

Additional reagents follow.
| target | reagent | GFP, % of control | viability (ATP), % of control |
| --- | --- | --- | --- |
| Pid1 (GeneID 98496) | 1 | 152 (active) | 116 |
| Pid1 (GeneID 98496) | 2 | 81.3 | 69.2 |
| Pid1 (GeneID 98496) | 3 | 97.9 | 85.3 |
| Emilin2 (GeneID 246707) | 1 | 86 | 114 |
| Emilin2 (GeneID 246707) | 2 | 62.8 | 86.4 |
| Bnip2 (GeneID 12175) | 1 | 81.2 | 54.4 |
| Bnip2 (GeneID 12175) | 2 | 71.5 | 74.7 |
| Bnip2 (GeneID 12175) | 3 | 109 | 114 |
| Or2q1 (GeneID 258437) | 1 | 39.9 | 31.3 |
| Or2q1 (GeneID 258437) | 2 | 57.1 | 61.6 |
| Or2q1 (GeneID 258437) | 3 | 159 (active) | 88 |
| Mrps21 (GeneID 66292) | 1 | 77.1 | 62.9 |
| Mrps21 (GeneID 66292) | 2 | 82.6 | 95.1 |
| Mrps21 (GeneID 66292) | 3 | 81.5 | 68.4 |
| Il13 (GeneID 16163) | 1 | 77.8 | 90.9 |
| Il13 (GeneID 16163) | 2 | 82.6 | 76.9 |
| Serpina11 (GeneID 380780) | 1 | 100 | 99.8 |
| Serpina11 (GeneID 380780) | 2 | 114 | 99.5 |
| Serpina11 (GeneID 380780) | 3 | 76.2 | 84.8 |
| Ehd4 (GeneID 98878) | 1 | 117 | 80.5 |
| Ehd4 (GeneID 98878) | 2 | 66.7 | 66.2 |
| Ehd4 (GeneID 98878) | 3 | 65.9 | 83.1 |
| Dhcr7 (GeneID 13360) | 1 | 84.1 | 101 |
| Dhcr7 (GeneID 13360) | 2 | 88 | 77.8 |
| Dhcr7 (GeneID 13360) | 3 | 90.6 | 42.5 |
| Olfml2a (GeneID 241327) | 1 | 158 (active) | 87.7 |
| Olfml2a (GeneID 241327) | 2 | 95.6 | 91.2 |
| Olfml2a (GeneID 241327) | 3 | 102 | 69.8 |
| Dexi (GeneID 58239) | 1 | 95 | 97.9 |
| Dexi (GeneID 58239) | 2 | 124 (active) | 106 |
| Dexi (GeneID 58239) | 3 | 121 (active) | 47.2 |
| Paip1 (GeneID 218693) | 1 | 95.6 | 104 |
| Paip1 (GeneID 218693) | 2 | 82.6 | 87.4 |
| Paip1 (GeneID 218693) | 3 | 70.4 | 77.3 |
| Map3k11 (GeneID 26403) | 1 | 98.7 | 88.4 |
| Pknox2 (GeneID 208076) | 1 | 46.8 | 68.9 |
| Pknox2 (GeneID 208076) | 2 | 62.5 | 74.5 |
| Pknox2 (GeneID 208076) | 3 | 115 | 93.5 |
| Bsdc1 (GeneID 100383) | 1 | 68.4 | 86.1 |
| Bsdc1 (GeneID 100383) | 2 | 86 | 81 |
| Bsdc1 (GeneID 100383) | 3 | 102 | 91.5 |
